Bridge positions count the residues as written; N and C are the ends. Square brackets hold non-standard residues; d marks the D form. Peptide text beside a SMILES is read from it. Sar = CNCC(=O)O
Test: nanosecond time-resolved fluorescence decay of excited-state tyrosinate (long lifetime fluorescence, LLF)
Details: for LLF (long lifetime fluorescence): emission 350 nm
[1] = solvent propane-1,2-diol (propylene glycol)

Compound | percent LLF (aqueous SDS above critical micelle concentration) | % LLF (percent of conformer(s) giving rise to LLF) (solvent isopropanol) | LLF (long lifetime fluorescence) (solvent isopropanol) | % LLF (percent of conformer(s) giving rise to LLF) [1] | LLF (long lifetime fluorescence) [1] | percent LLF (solvent trifluoroethanol)
CC[C@H](C)[C@H](NC(=O)[C@H](Cc1ccc(O)cc1)NC(=O)[C@@H](NC(=O)[C@H](CCCNC(=N)N)NC(=O)[C@@H](N)CC(=O)O)C(C)C)C(=O)N[C@@H](Cc1c[nH]cn1)C(=O)N1CCC[C@H]1C(=O)N[C@@H](Cc1ccccc1)C(=O)O [Ligand A, Angiotensin II, reference compound] | 14% | 79% | 15.5 nanoseconds | 19% | 20.8 nanoseconds | 19%
CC[C@H](C)[C@H](NC(=O)[C@@H]1CCCN1C(=O)[C@H](Cc1c[nH]cn1)NC(=O)[C@@H](NC(=O)[C@H](Cc1ccc(O)cc1)NC(=O)[C@@H](NC(=O)[C@H](CCCNC(=N)N)NC(=O)CNC)C(C)C)[C@@H](C)CC)C(=O)O [J] |  | 20% |  |  |  | 
[Sar^1 Tyr(Me)^4 ]Angiotensin II [reference compound] |  | 79% |  | 19% | 20.8 nanoseconds | 
CC[C@H](C)[C@H](NC(=O)[C@H](Cc1ccc(O)cc1)NC(=O)[C@@H](NC(=O)[C@H](CCCNC(=N)N)NC(=O)CNC)C(C)C)C(=O)N[C@@H](Cc1c[nH]cn1)C(=O)N1CCC[C@H]1C(=O)N[C@@H](CC1CCCCC1)C(=O)O [D] |  |  | 0 nanoseconds | 13% | 14.9 nanoseconds | 
[Tyr(Me)^4 ]Angiotensin III [B, reference compound] |  | 10% |  | 46% | 13.1 nanoseconds | 
CC[C@H](C)[C@H](NC(=O)[C@@H]1CCCN1C(=O)[C@H](Cc1c[nH]cn1)NC(=O)[C@@H](NC(=O)[C@H](Cc1ccc(O)cc1)NC(=O)[C@@H](NC(=O)[C@H](CCCNC(=N)N)NC(=O)CNC)C(C)C)[C@@H](C)CC)C(=O)O [Ligand J, [Sar^1 Ile^8]Angiotensin II, reference compound] |  |  | 6.5 nanoseconds |  | 0 nanoseconds | 
CC[C@H](C)[C@@H]1NC(=O)[C@H](Cc2ccc(O)cc2)NC(=O)[C@@H](N)CSSC[C@@H](C(=O)N2CCC[C@H]2C(=O)N[C@@H](CC(C)C)C(=O)NCC(N)=O)NC(=O)[C@H](C)NC(=O)[C@H](CCC(N)=O)NC1=O [[Ala^5]] (H-CYIQACPLG-NH2; disulfide 1-6) |  |  |  |  | 7.6 nanoseconds | 
CC[C@H](C)[C@@H]1NC(=O)[C@H](Cc2ccc(O)cc2)NC(=O)[C@@H](N)CSSC[C@@H](C(=O)N2CCC[C@H]2C(=O)N[C@@H](CC(C)C)C(=O)NCC(N)=O)NC(=O)[C@H](CC(N)=O)NC(=O)[C@H](CCC(N)=O)NC1=O [oxytocin, Oxytocin, reference compound] |  |  |  |  | 18.5 nanoseconds | 
CC[C@H](C)[C@H](NC(=O)[C@H](Cc1ccc(O)cc1)NC(=O)[C@@H](NC(=O)[C@H](CCCNC(=N)N)NC(=O)CNC)C(C)C)C(=O)N[C@@H](Cc1c[nH]cn1)C(=O)N1CCC[C@H]1C(=O)N[C@@H](Cc1ccccc1)C(N)=O [F] |  | 3% | 11.6 nanoseconds | 6% | 9.2 nanoseconds | 
CC[C@H](C)[C@H](NC(=O)[C@H](Cc1ccc(O)cc1)NC(=O)[C@@H](NC(=O)[C@H](CCCNC(=N)N)NC(=O)CNC)C(C)C)C(=O)N[C@@H](C)C(=O)N1CCC[C@H]1C(=O)N[C@@H](Cc1ccccc1)C(=O)O [G] (H-[Sar]RVYIAPF-OH) |  |  | 0 nanoseconds | 35% | 6.6 nanoseconds | 
CC[C@H](C)[C@H](NC(=O)[C@H](Cc1ccc(O)cc1)NC(=O)[C@@H](NC(=O)[C@@H](N)CCCNC(=N)N)C(C)C)C(=O)N[C@@H](Cc1c[nH]cn1)C(=O)N1CCC[C@H]1C(=O)N[C@@H](CC1CCCCC1)C(=O)O [E] |  |  | 0 nanoseconds | 10% | 16.2 nanoseconds | 
CC[C@H](C)[C@H](NC(=O)[C@H](Cc1ccc(O)cc1)NC(=O)[C@@H](NC(=O)[C@@H](N)CCCNC(=N)N)C(C)C)C(=O)N[C@@H](Cc1c[nH]cn1)C(=O)N1CCC[C@H]1C(=O)N[C@@H](Cc1ccccc1)C(=O)O [K] |  | 14% | 10.2 nanoseconds | 10% | 7.4 nanoseconds | 
CC[C@H](C)[C@H](NC(=O)[C@H](Cc1ccc(O)cc1)NC(=O)[C@@H](NC(=O)[C@H](CCCNC(=N)N)NC(=O)CNC)C(C)C)C(=O)N[C@@H](Cc1ccccc1)C(=O)N1CCC[C@H]1C(=O)N[C@@H](Cc1ccccc1)C(=O)O [C] (H-[Sar]RVYIFPF-OH) |  | 11% | 9.3 nanoseconds | 11% | 18.8 nanoseconds | 
CC[C@H](C)[C@H](NC(=O)[C@H](Cc1ccc(O)cc1)NC(=O)[C@@H](NC(=O)[C@H](CCCNC(=N)N)NC(=O)CNC)C(C)C)C(=O)N[C@@H](Cc1c[nH]cn1)C(=O)N1CCC[C@@H]1C(=O)N[C@@H](Cc1ccccc1)C(=O)O [I] |  | 12% | 8.5 nanoseconds | 8% | 10.2 nanoseconds | 
